# Measured values reported in the supplement of paper PMC9549374.
# The other results are listed elsewhere or left out. Rule as the data show it: active = 2-fold of DMSO or more and inactive = the rest. Single values of this set are uncertain. Some low values are a fixed figure set by the source, not a measured ratio.
# System: CM7/1-hgem mouse ES cell-derived cardiomyocytes
# Experiment: maximal number of mAG-hGem(1/110)-positive cardiomyocytes over 96 h, fold-change vs DMSO; higher = more cardiomyocyte cell cycle activity
# Conditions: 1 µM; 96 (max over 12 h time points) h
row,Structure (SMILES),maximal number
1,O=c1cc(-c2ccc(O)cc2)oc2cc(O[C@@H]3O[C@H](CO)[C@@H](O)[C@H](O)[C@H]3O)cc(O)c12,inactive: 1
2,COc1ccc2c(c1)O[C@@H]1COc3cc(OC)c(OC)cc3[C@@H]1C2=O,inactive: 1
3,"CC(C(=O)O)[C@H]1CCC2C3CC=C4C[C@@H](O)CC[C@]4(C)C3CC[C@@]21C (stereo partly drawn) [3beta-HYDROXY-23,24-BISNORCHOL-5-ENIC ACID]",inactive: 1
4,NC(=O)CC[C@H](N)C(=O)O,inactive: 1
5,Nc1nc2c(ncn2COCCO)c(=O)[nH]1,inactive: 1
6,COc1c2occc2c(OC)c2c(=O)cc(C)oc12,inactive: 1
7,COC1=CC(=O)C=C(OC)C1=O,inactive: 1
8,O=C(O[C@@H]1Cc2c(O)cc(O)cc2O[C@@H]1c1cc(O)c(=O)c2c(O)c(O)cc([C@H]3Oc4cc(O)cc(O)c4C[C@H]3OC(=O)c3cc(O)c(O)c(O)c3)c2c1)c1cc(O)c(O)c(O)c1,inactive: 1
9,CCCCCCCC/C=C/CCCCCCCCOP(=O)([O-])OCC[N+](C)(C)C,inactive: 0
10,CC1CCN(CCCC(=O)c2ccc(F)cc2)CC1,inactive: 1
11,C[C@H](N[C@@H](CCc1ccccc1)C(=O)O)C(=O)N1CCC[C@H]1C(=O)O,inactive: 1
12,COc1ccc(Cl)cc1C(=O)NCCc1ccc(S(=O)(=O)NC(=O)NC2CCCCC2)cc1,inactive: 1
13,C=CC(C1=CC(=O)C(OC)=CC1=O)c1ccccc1 (stereo not given),inactive: 1
14,Cc1cc(O)c(C)c(O)c1C(=O)O,inactive: 1
15,C[C@@](Cc1ccc(O)c(O)c1)(NN)C(=O)O,inactive: 1

# Looked up one by one from the list above, two records:
row,Structure (SMILES),maximal number
6,COc1c2occc2c(OC)c2c(=O)cc(C)oc12,inactive: 1
5,Nc1nc2c(ncn2COCCO)c(=O)[nH]1,inactive: 1
